The values below come from paper PMC12529098.

Sequences of proteins named here, by UniProt entry; tags and fusion partners are left off.
UniProt Q62296: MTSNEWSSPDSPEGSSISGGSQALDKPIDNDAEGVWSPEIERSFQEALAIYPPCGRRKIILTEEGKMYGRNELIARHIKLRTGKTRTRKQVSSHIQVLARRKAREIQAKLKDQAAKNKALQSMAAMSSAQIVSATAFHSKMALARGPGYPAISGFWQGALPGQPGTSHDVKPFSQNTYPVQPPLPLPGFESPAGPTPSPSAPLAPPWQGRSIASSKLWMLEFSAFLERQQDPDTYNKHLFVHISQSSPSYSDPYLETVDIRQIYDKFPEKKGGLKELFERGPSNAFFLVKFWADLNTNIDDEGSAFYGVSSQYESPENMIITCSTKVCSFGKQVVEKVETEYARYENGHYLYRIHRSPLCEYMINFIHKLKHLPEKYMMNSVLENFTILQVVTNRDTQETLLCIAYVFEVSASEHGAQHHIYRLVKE
UniProt Q8BQQ1: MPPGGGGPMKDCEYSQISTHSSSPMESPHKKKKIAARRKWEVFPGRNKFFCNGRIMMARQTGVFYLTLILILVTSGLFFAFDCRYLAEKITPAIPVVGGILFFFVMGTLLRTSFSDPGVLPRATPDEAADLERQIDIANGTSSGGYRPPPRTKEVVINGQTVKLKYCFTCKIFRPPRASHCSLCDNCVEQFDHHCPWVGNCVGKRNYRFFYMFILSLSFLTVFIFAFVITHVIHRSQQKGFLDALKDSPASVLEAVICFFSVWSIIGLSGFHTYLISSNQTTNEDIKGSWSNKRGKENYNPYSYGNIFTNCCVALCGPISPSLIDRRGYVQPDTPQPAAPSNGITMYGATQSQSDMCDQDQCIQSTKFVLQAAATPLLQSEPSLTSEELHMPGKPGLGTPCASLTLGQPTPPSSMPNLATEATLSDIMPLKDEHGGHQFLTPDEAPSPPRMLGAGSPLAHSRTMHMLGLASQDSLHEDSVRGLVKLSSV

Results are given in words; binding and its absence hold for the method and conditions named. Binding seen in cells or lysates may run through a third protein. Some results given as binding are weak or reduced against the parent protein; the word gives no strength.

The target of the test is TEAD4 (mouse (endogenous in pmTECs)) (UniProt Q62296). In words: co-IP; renal TECs following inflammatory injury; cells lysed in NP-40 buffer; eluted proteins (100 ug per sample) analysed by Western blot; which protein was precipitated is not given.

Take “ZDHHC14 (from UniProt Q8BQQ1 1-489) (enzyme)”: the binding entry is given as “binds”.
